Assay results: paper PMC11292367

Target: T1, C4BPα1-2 (C4BP fragment composed of the α1 and α2 domains) (human) (UniProt P04003)
T1 sequence: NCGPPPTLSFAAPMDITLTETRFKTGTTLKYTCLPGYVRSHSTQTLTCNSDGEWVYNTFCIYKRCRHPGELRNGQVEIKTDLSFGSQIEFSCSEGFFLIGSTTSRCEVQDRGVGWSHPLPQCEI
Assay: crystal structure; M87^N100 mixed with C4BPα1-2 in equimolar ratio; hanging drop, 20 °C, 0.1 M sodium citrate pH 4.8, 0.2 M KH2PO4, 25% PEG 3350; molecular replacement, 2.7 Å; both purified

M87^N100 (N-terminal 100 amino acids of M87 protein, His6-tag removed) (Streptococcus pyogenes) (domain or fragment)
binding: binds

These are yes or no findings as the source states them, for the method shown. Binding can be weak; no strength is given.
